PubChem BioAssay AID504793, Drosophila RNAi Screening Center | 2011

Test: 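Whole-genome screen for parts of the DNA damage checkpoint at G2/M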 (primary screen)
Cell system: Drosophila S2R+ cells
Reagents: long dsRNA against Drosophila genes, about 0.25 µg dsRNA per well
Time to read-out: 4 days of dsRNA, then 4 hours of drug before read-out
Challenge: doxorubicin 0.5 µM for 4 hours to cause double-strand breaks, in cells also given a low, harmless dose of dsRNA against nbs to sensitise the assay
Read-out: 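Mitotic index as the number of phospho-histone H3-positive cells in each well following doxorubicin, given as raw counts without normalisation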
Direction: mitotic cells: higher = more cells in mitosis, weaker G2 arrest
Call rule: 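Genes are called active only when high mitotic counts were reproduced with independent dsRNAs and mitosis was checked for delay without damage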
Meaning of the calls: active = confirmed in follow-up tests; inactive = not confirmed
The deposit covers about 23,000 reagents; shown is a random part of those with a known target gene and a result. Of all reagents, 62 (0.27%) were called active. 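Calls come from follow-up tests whose scores are not deposited, so confirmed genes may have low counts here; counts are not normalised per plate.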 Raw values vary from plate to plate and are shown uncorrected. A plus sign joins genes that one reagent is predicted to hit.

target,DRSC id,"mitotic cells, replicate 1",outcome
CG9312,DRSC16471,6,inactive
Sprn,DRSC10132,3,inactive
GstD7,DRSC16688,12,inactive
GstD7,DRSC29907,6,inactive
CalpC,DRSC19873,8,inactive
CG11369,DRSC17779,11,inactive
COX7A,DRSC16514,5,inactive
CG6006,DRSC13137,8,inactive
CG6006,DRSC15946,8,inactive
yl,DRSC20387,13,inactive
yl,DRSC29027,3,inactive
Deaf1,DRSC11143,11,inactive
Deaf1,DRSC22786,24,inactive
Deaf1,DRSC25984,18,inactive
Atg5,DRSC18112,4,inactive
CG11406,DRSC04010,5,inactive
CG11406,DRSC04108,4,inactive
Zip48C,DRSC06314,7,inactive
S-Lap5,DRSC06732,5,inactive
S-Lap5,DRSC24405,9,inactive
CG3566,DRSC18311,15,inactive
CG3566,DRSC29311,9,inactive
CG13018,DRSC06274,7,inactive
CG14650,DRSC12236,11,inactive
CG14650,DRSC23822,4,inactive
CG3770,DRSC04416,6,inactive
Klp31E,DRSC03354,7,inactive
CG17325 + CG42305,DRSC02602,8,inactive
l(3)73Ah,DRSC11359,3,inactive
e(y)2b,DRSC12556,8,inactive
sds22,DRSC17052,7,inactive
CG31418,DRSC21780,9,inactive
CG31418,DRSC26160,7,inactive
CG13457,DRSC10004,2,inactive
CG13457,DRSC29775,12,inactive
l(1)G0196,DRSC20591,8,inactive
l(1)G0196,DRSC20628,4,inactive
l(1)G0196,DRSC20629,9,inactive
CG31848,DRSC01309,8,inactive
CG13311,DRSC09982,5,inactive
unpg,DRSC07713,8,inactive
unpg,DRSC28861,5,inactive
Gli,DRSC03332,5,inactive
Ir56b,DRSC06543,3,inactive
Ir56b,DRSC28758,3,inactive

Part of the list above, set out differently:
e(y)2b [DRSC12556] → mitotic cells, replicate 1: 8; outcome: inactive
sds22 [DRSC17052] → mitotic cells, replicate 1: 7; outcome: inactive
